Source: publication PMC12513489
Results are given in words; binding and its absence hold for the method and conditions named. In cells and extracts the contact can be indirect. Here binding means that the protein was enriched with, or labelled near, the bait; the list need not be complete.

By UniProt entry, the sequences of proteins in these tests, tags left out. Residues count along the entry.
UniProt P08113, residues 22-802: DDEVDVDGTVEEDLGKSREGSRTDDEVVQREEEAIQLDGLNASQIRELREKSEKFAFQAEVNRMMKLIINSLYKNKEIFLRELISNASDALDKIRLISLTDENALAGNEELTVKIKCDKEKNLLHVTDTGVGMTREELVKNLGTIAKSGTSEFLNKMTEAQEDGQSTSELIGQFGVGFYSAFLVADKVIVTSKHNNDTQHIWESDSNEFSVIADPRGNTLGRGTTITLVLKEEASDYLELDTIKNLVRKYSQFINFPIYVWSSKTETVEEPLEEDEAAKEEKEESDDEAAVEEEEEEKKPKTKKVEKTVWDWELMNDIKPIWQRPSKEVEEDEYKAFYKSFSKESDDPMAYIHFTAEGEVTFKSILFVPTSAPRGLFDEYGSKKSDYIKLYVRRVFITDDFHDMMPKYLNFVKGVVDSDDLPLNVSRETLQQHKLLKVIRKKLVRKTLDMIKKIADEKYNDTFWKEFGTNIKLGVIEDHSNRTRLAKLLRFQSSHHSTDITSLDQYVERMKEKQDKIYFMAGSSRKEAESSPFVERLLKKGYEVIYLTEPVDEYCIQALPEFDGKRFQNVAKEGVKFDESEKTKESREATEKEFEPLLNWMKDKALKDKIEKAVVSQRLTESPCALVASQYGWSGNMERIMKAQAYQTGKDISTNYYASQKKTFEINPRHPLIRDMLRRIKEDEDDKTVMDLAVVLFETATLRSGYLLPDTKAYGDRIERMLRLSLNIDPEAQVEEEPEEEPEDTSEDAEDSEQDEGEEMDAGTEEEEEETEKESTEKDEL
UniProt P46935: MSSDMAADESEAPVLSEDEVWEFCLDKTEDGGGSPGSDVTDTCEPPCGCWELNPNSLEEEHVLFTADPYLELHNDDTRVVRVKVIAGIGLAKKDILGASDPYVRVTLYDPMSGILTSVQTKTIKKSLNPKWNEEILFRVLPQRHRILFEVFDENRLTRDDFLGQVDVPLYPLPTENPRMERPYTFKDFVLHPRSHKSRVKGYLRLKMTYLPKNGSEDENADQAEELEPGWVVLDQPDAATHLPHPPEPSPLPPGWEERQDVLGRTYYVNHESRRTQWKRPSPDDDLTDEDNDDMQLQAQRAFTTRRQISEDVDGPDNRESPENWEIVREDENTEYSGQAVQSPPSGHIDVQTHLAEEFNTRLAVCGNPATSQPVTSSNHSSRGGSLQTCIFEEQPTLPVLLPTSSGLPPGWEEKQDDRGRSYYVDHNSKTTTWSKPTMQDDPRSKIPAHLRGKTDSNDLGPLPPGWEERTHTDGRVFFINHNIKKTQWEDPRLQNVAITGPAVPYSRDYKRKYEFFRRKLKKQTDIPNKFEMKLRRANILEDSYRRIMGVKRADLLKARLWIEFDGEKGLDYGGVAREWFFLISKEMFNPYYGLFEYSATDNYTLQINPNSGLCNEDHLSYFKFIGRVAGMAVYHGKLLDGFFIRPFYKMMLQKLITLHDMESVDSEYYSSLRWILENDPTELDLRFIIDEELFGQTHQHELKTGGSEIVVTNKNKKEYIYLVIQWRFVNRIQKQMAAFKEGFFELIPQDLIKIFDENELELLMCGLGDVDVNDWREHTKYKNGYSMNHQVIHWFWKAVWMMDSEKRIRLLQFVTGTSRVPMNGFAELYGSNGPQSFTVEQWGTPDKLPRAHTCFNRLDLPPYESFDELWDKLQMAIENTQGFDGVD
UniProt P07356: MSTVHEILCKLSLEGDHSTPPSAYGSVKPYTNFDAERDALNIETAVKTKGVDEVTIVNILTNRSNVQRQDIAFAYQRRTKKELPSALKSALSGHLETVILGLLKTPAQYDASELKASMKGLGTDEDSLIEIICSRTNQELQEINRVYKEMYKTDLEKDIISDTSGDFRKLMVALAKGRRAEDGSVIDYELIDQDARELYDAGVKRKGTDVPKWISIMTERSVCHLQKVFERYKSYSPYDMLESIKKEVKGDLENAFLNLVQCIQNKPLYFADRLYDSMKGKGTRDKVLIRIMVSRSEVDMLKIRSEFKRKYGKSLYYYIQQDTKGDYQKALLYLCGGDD

Target: glucose-regulated protein 94 (GRP94) (mouse (endogenous in cardiomyocytes)) (UniProt P08113)
Experiment: affinity purification with mass spectrometry; co-IP with anti-GRP94 antibody on Protein A/G magnetic beads from lysate of cardiomyocytes treated with hypoxia (12 hours) or tunicamycin (15 mg/L, 12 hours); SDS-PAGE, in-gel trypsin digestion, LC-MS/MS

binding | Substance
binds | NEDD4 (from UniProt P46935 1-887)
binds | Anxa2 (from UniProt P07356 1-339)
